# Results of single-concentration screens

From ChEMBL document CHEMBL3988442, “University of Dundee, Small-Polar-MMV Screening Library” (2021).

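Growth of Mycobacterium tuberculosis over 4 days (cholesterol / DPPC medium with tyloxapol); the read-out is not stated. Tested at 50 µM. Higher reads as more growth inhibition (inferred: compounds with an IC50 in retests scored well above the rest). Size under these conditions: about 69,000 compounds, about 370 of them at 50% or above in at least one test.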

Results are given as percent effect. The record does not define 0% and 100%; most values in the screen are far below 50% and negative numbers occur (in some assays of this library far below -100). The compounds are a random part of those screened. Two or more numbers in one place are separate tests of the same structure; such repeats can differ widely.

| SMILES | percent effect |
|---|---|
| `COc1ccc([C@@H]2CN(C(=O)CS(C)(=O)=O)C[C@H]2NC(C)=O)cc1` | 1.392 |
| `OCc1cn(Cc2cccc(C(F)(F)F)c2)nn1` | -34.6 |
| `CNS(=O)(=O)c1ccc(CN2CCCN(Cc3ccncc3)CC2)cc1` | -16.95 |
| `Cc1nc(NC(=O)C(C)N2CCN(c3ncccn3)CC2)sc1C` (centres undefined) | -0.8767 |
| `COc1cc([C@@H]2N[C@H](c3nccs3)Cc3ccsc32)cc(OC)c1OC` | 4.421 and 7.109 |
| `CSCC(C)(O)CNC(=O)c1cc(Cl)ccc1Cl` (centres undefined) | 11.12 |
| `CC(NC(=O)CCS(=O)(=O)C1CCCC1)c1nc(-c2ccccc2)c[nH]1` (centres undefined) | -11.63 |
| `CCCNC(=O)C(C)Oc1ccc(F)cc1` (centres undefined) | 12.54 |
| `Cc1nc(NC(=O)C(C)N(C)Cc2cccc(C#N)c2)sc1C` (centres undefined) | -8.359 |
| `CCn1ccnc1CN1CCN(C(C)C(=O)NCc2ccco2)CC1` (centres undefined) | -38.96 |
| `CCn1nc(C)c2nc(C)nc(NC3CCCC3)c21` | 15.79 |
| `O=C(O)C(F)(F)F.[H][C@@]12CN(C(=O)c3ccco3)C[C@@]1([H])N(Cc1cccnc1)C(=O)CO2` | -4.106 and -5.571 |
| `CN(C)CCN1CC(C(=O)NCc2ccc(C#N)cc2)CC1=O` (centres undefined) | -1.202 and -6.504 |
| `COCC1CC2(CCN(CC3CC3)CC2)CN1Cc1csc(C)n1.O=C(O)C(F)(F)F.O=C(O)C(F)(F)F` (centres undefined) | -13.8 |
| `Cc1nc(CNC2(C(=O)OC(C)(C)C)CCCC2)oc1C` | 3.183 |
| `O=C(Cc1c[nH]c(=O)[nH]c1=O)N1CCC2(CCC(=O)N(C3CC3)C2)CC1` | 0.6997 |
| `O=C(c1cc(=O)c(OCc2ccccc2)co1)N1CCSCC1` | -3.266 |
| `O=C(CN1CCCC1Cn1cncn1)NCCOc1ccccc1` (centres undefined) | 0.9261 |
| `CCCN1C(=O)C2(CCCCC2)NC1c1cn(C)c(=O)n(C)c1=O` (centres undefined) | 12.78 |
| `COC1COC2(CCN(Cc3ccccc3Cl)CC2)C1.O=C(O)C(F)(F)F` (centres undefined) | 13.16 |
| `CC(=O)N1CCC(Cc2cnc(-c3c(C)n[nH]c3C)cn2)C1` (centres undefined) | -5.382 |
| `CCCc1nccn1-c1cccc(CN2CCCC2)c1` | -7.044 |
| `O=C(NCc1cc(C2CC2)n(C2CCCC2)n1)C1CC1` | -7.307 |
| `CCCn1[nH]cc/c1=N\C(=O)CN1CCc2cnc(CC)nc2C1` | -6.169 |
| `CC(Nc1cccc(CN2CCOC2=O)c1)C(=O)N1CCNC1=O` (centres undefined) | -4.545 |
| `COc1cc(CN(C)C(C)c2ccccn2)cc2c1OCO2` (centres undefined) | -2.19 |
| `Nc1ncncc1-c1noc([C@@H]2CCCN2CCCc2ccccc2)n1` | -14.94 |
| `Cn1ncc(N2CCC(CNC(=O)[C@@H](N)c3ccccc3)CC2)cc1=O` | -24.65 and 4.635 |
| `COCCC1(CNC(=O)Nc2ccc(-n3nccn3)cc2)CCC1` | 1.745 |
| `[H][C@@]12CN(Cc3ccccc3)C[C@]1([H])OCC(=O)N2CC(N)=O` | -18.45 |
| `CCCNC(=O)CSc1nnc2[nH]c(=O)cc(CC)n12` | -47.38 |
| `CCn1c(C)nnc1CN(C)C1CCN(CCOc2ccccc2)C1` (centres undefined) | -32.28 |
| `N#Cc1cccc(OCCN2CCCC2C(=O)N2CCSCC2)c1` (centres undefined) | 22.25 |
| `Cc1nccn1CCCNc1ncccc1C#N` | 12.72 |
| `O=C(Nc1ccccn1)C1(n2cnnn2)CCCCC1` | -7.787 |
| `Cc1cccc(CN2CCC3(CC2)COC(COCC2CC2)C3)n1` (centres undefined) | -4.622 |
| `O=C(O)C(F)(F)F.[H][C@@]12C[C@@H](c3nc(C4CC4)cs3)O[C@]1([H])CN(C(=O)C1CCOCC1)C2` | -12.05 |
| `c1nc2c(c(N3CCOC(Cn4cncn4)C3)n1)CCC2` (centres undefined) | 5.118 |
| `Cc1cccc(-c2nc(CNC3CCc4nc(C)nn4C3)no2)c1` (centres undefined) | 7.096 |
| `CCSc1nnc(N(CCC#N)CCC#N)s1` | -23.05 |
| `c1cnc(N2CCCn3c(nnc3Cn3cccn3)C2)nc1` | -3.836 |
| `COc1cccc(S(=O)(=O)N2CCOC(C)(C(N)=O)C2)c1` (centres undefined) | -7.458 and -5.55 |
| `NC(=O)N1CCCC1COC(=O)c1ccc(F)cc1Br` (centres undefined) | 1.188 |
| `CN(CCc1ccccc1)C(=O)CN1C(=O)OC[C@@H]1c1ccccc1` | -24.35 |
| `CCN(C(=O)CN1CCCC1Cc1ccccc1)c1ccccc1` (centres undefined) | -10.05 |
| `CCN1CCC2(CC1)CN(C(=O)c1cccnc1)c1ccc(Cl)cc12.O=C(O)C(F)(F)F.O=C(O)C(F)(F)F` | -13.41 |
| `N#Cc1ccc(Cn2cncn2)c(F)c1` | -3.376 |
| `Cc1cnc(C(=O)N2CCCN(c3nc(C)cs3)CC2)cn1` | 14.94 |
| `COc1ccc(CNC(=O)CNc2ccccc2OC)cc1` | 13.13 |
| `[H][C@@]12CN(C(=O)c3cnn(C)c3)CCO[C@]1([H])CN(C1CCC1)C2` | -1.235 |
| `CN1CCC(N2CCC(CN(Cc3ccncc3)C3CCC3)CC2)CC1` | 1.741 |
| `Cc1csc(N2CCN(CC(=O)Nc3cccnc3)CC2C)n1` (centres undefined) | 11.55 |
| `CCN1CCCC(c2c(-c3ccccc3)ncn2CCCO)C1` (centres undefined) | -19.74 |
| `CNS(=O)(=O)c1ccccc1N1CCN(C(=O)NC(C)C)CC1` | -5.848 |
| `O=C(NCCN1CCOCC1)c1ccnn1-c1ccc2ccccn12.O=C(O)C(F)(F)F` | -15.88 |
| `COc1cc(-c2n[nH]c(CN)n2)cc(OC)c1OC` | -14.43 |
| `[H][C@]12CCN(C(=O)c3cc(C)oc3C)C[C@@]1([H])OCCN(C(C)=O)C2` | -25.36 |
| `CCCC(=O)NS(=O)(=O)c1ccc(C#N)c(C(F)(F)F)c1` | -14.4 |
| `O=C(O)C(F)(F)F.[H][C@@]12COC[C@]1(COCc1csc(C)n1)CN(Cc1ccoc1)C2` | -3.668 |
| `Cc1cnn(C2CN(CC(=O)NCc3ccccn3)C2)c1` | -24.58 |
| `Cn1nnc2c1CCN(C(=O)CC1CC1)C2COCCN1CCCC1` (centres undefined) | 0.3566 |
| `O=C(O)C(F)(F)F.[H][C@]12C[C@@H](Cn3cncn3)N(CC3CC3)[C@@]1([H])CCN(S(C)(=O)=O)C2` | -28.11 |
| `CCc1cc(-c2cc[nH]n2)nc(N2CCOCC2)n1` | -20.16 |

Once more, the final 4:

| SMILES | percent effect |
|---|---|
| `Cc1cnn(C2CN(CC(=O)NCc3ccccn3)C2)c1` | -24.58 |
| `Cn1nnc2c1CCN(C(=O)CC1CC1)C2COCCN1CCCC1` (centres undefined) | 0.3566 |
| `O=C(O)C(F)(F)F.[H][C@]12C[C@@H](Cn3cncn3)N(CC3CC3)[C@@]1([H])CCN(S(C)(=O)=O)C2` | -28.11 |
| `CCc1cc(-c2cc[nH]n2)nc(N2CCOCC2)n1` | -20.16 |